This is one part of the list. Further columns of the screen follow, without active or inactive calls. The list favours compounds with an active or inconclusive main result. The note in brackets gives the kind of curve behind each potency; many fits are weak.
Experiment: qHTS Assay to Find Inhibitors of Chronic Active B-Cell Receptor Signaling
Conditions: ABC-DLBCL IkBa-CBG/CBR reporter, luminescence ratio (green luciferase fused to IkBa over red control in TMD8 lymphoma cells), 4 h
Outline: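 Concentration-response series (up to 46 uM) were applied to TMD8 dual-reporter cells for 4 h at 37C with doxycycline. Green/red ratio, after filter-overlap correction, defined %Activity; red signal alone was normalised to basal cells and zero luminescence.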

[1] = measured here: CBR red luminescence, cell number
[2] = measured here: IkBa-CBG green luminescence

| Structure (SMILES) | AC50 [1] | AC50 [2] |
| --- | --- | --- |
| CCOCCCNC(=O)C1CCN(Cc2ccc(OCc3ccccc3)c(OC)c2)CC1 | 0.501 µM [rising, full curve, poor fit] |  |
| CCOC(=O)c1cc(-c2ccc(F)cc2)n(CCC(=O)Nc2cc(OC)cc(OC)c2)c1C | 0.631 µM [rising, full curve] |  |
| CC(O)[C@H]1CNCCN1CCc1cc(C(F)(F)F)cc(C(F)(F)F)c1 (stereo partly specified) | 23.1 µM [falling, single point] |  |
| CCN(c1ccccc1)S(=O)(=O)c1ccc(OC)c(NC(=O)c2cccs2)c1 | 25.1 µM [falling, single point] |  |
| O=C(N/N=C/c1ccc2c(c1)OCO2)c1cccnc1 | 15.8 µM [falling, partial curve, poor fit] |  |
| CC1Cc2ccccc2N1C(=S)Nc1cccc(S(=O)(=O)N(C)C)c1 (stereo unspecified) | 15.8 µM [rising, partial curve, poor fit] |  |
| Cc1ccsc1C1C(C#N)=C(N)OC2=C1C(=O)CC(C)(C)C2 (stereo unspecified) | 12.6 µM [falling, partial curve] |  |
| COc1cccc(-c2csc(N3CCN(CC(=O)NNC(=O)c4ccc(Br)cc4)CC3)n2)c1 | 18.4 µM [falling, partial curve, poor fit] |  |
| COc1ccc(C(=O)NCC2(c3ccccc3)CCOCC2)cc1[N+](=O)[O-] | 6.51 µM [rising, single point] |  |
| Cc1cc(C(=O)CCl)c(C)n1-c1c(C)n(C)n(-c2ccccc2)c1=O | 11.2 µM [falling, partial curve] |  |
| COC(=O)C(C)Sc1ccc2nnc(-c3ccccc3)n2n1 (stereo unspecified) | 35.5 µM [falling, single point] |  |
| Cc1nc([N+](=O)[O-])c(Br)n1Cc1ccccc1 | 6.31 µM [falling, partial curve] |  |
| CCCNC(=O)CSc1nnc(-c2ccc(F)cc2)o1 | 11.2 µM [rising, single point] |  |
| Cc1ccc(SCCNC(=O)/C=C/c2cccc([N+](=O)[O-])c2)cc1 | 25.9 µM [rising, single point] |  |
| Cc1cc(N/N=C/c2ccccc2Br)nc2ccccc12 | 0.411 µM [rising, full curve] |  |
| CN1CCN(C2=C(Cl)C(=O)N(c3ccc(Cl)cc3)C2=O)CC1 | 11.2 µM [falling, partial curve, poor fit] |  |
| C/C(=N\NC(=O)c1ccco1)c1ccc(-c2ccccc2)cc1 | 0.794 µM [rising, full curve] |  |
| COc1ccc(/C=C/C(=O)Nc2ccccc2F)cc1S(=O)(=O)N1CCOCC1 | 2.06 µM [falling, partial curve] |  |
| CC(C)N(CC(N)=O)c1ncnc2sc(-c3ccccc3)cc12 | 6.31 µM [falling, single point] |  |
| CCSc1nnc(-c2cccs2)o1 | 11.6 µM [rising, single point] |  |
| O=c1cc(CO)oc(CN2CCN(c3ccccc3)CC2)c1O | 12.6 µM [rising, partial curve, poor fit] |  |
| O=C(O)c1ccccc1NC(=O)c1cc2ccccc2oc1=O | 2.82 µM [falling, full curve] |  |

A section of the results above, for reference:

| Structure (SMILES) | AC50 [1] | AC50 [2] |
| --- | --- | --- |
| CN1CCN(C2=C(Cl)C(=O)N(c3ccc(Cl)cc3)C2=O)CC1 | 11.2 µM [falling, partial curve, poor fit] |  |
| C/C(=N\NC(=O)c1ccco1)c1ccc(-c2ccccc2)cc1 | 0.794 µM [rising, full curve] |  |
| COc1ccc(/C=C/C(=O)Nc2ccccc2F)cc1S(=O)(=O)N1CCOCC1 | 2.06 µM [falling, partial curve] |  |

Next compounds

| Structure (SMILES) | AC50 [1] | AC50 [2] |
| --- | --- | --- |
| COc1ccc(N2CCN(Cc3nc4c(c(=O)n(C)c(=O)n4C)n3C(C)C)CC2)cc1 | 20 µM [rising, single point] |  |
| CCOC(=O)c1sc2ncn(/N=C/c3cccnc3)c(=O)c2c1C | 29.1 µM [rising, single point] |  |
| C/C(=N\NC(=O)c1ccc(CSc2nncn2C)cc1)c1ccc(Cl)cc1 | 20.6 µM [rising, single point] |  |
| C[C@H](CO)N1C[C@H](C)[C@@H](CN(C)C(=O)Nc2ccccc2)Oc2ccc(NC(=O)C3CCCCC3)cc2C1=O | 18.4 µM [rising, partial curve, poor fit] |  |
| CC(=O)Nc1ccc(N=Cc2c(O)c(C(=O)Nc3ccccc3)cc3ccccc23)cc1 | 1.26 µM [falling, full curve] |  |
| Cc1cc(C(=O)NNC(=O)c2sccc2C)c(C)o1 | 16.4 µM [falling, partial curve] |  |
| CC(C)n1cc(NC(=O)COc2ccccc2Cl)cn1 | 2.51 µM [rising, full curve, poor fit] |  |
| Cc1cccc(NC(=S)NC2CCCC2)n1 | 10 µM [rising, partial curve, poor fit] | 15.8 µM [falling, partial curve, poor fit] |
| CCCN(CCC)C(=O)CC(c1ccccc1)c1cc(C)ccc1O (stereo unspecified) | 32.6 µM [falling, single point] |  |
| CCn1c(=O)cc(SCC(=O)Nc2ccc(OC)c(OC)c2)c2ccccc21 | 20.6 µM [falling, single point] |  |
| O=C1C(=C2CCCCC2)SC(=S)N1Cc1ccco1 | 35.5 µM [rising, single point] | 35.5 µM [falling, single point] |
| CN(C)CCC(c1ccc(Cl)cc1)c1ccccn1 (stereo unspecified) | 1.84 µM [falling, partial curve] |  |
| CC(C)C[C@H](NC(=O)NC(C)C)C(=O)O | 0.517 µM [falling, full curve, poor fit] |  |
| Cc1cc(N/C(=N\S(=O)(=O)c2ccc(F)cc2F)c2ccccc2)no1 | 6.51 µM [falling, partial curve, poor fit] |  |
| O=C(CCCCCN1C(=O)CCC1=O)Nc1ncn[nH]1 | 6.51 µM [rising, single point] |  |
| CC1CCCN(c2ccc([N+](=O)[O-])s2)C1 (stereo unspecified) | 12.6 µM [falling, partial curve] |  |
| CCOC(=O)N1CCC(NC(=O)c2cc3c(-c4ccccc4F)nn(C)c3s2)CC1 | 4.11 µM [rising, full curve, poor fit] |  |
| Cc1cc2[nH]c(=O)cc(-c3ccccc3)n2n1 | 14.1 µM [falling, partial curve, poor fit] |  |
| Cn1cccc1/C=N/NC(=O)c1ccn[nH]1 | 16.4 µM [falling, partial curve, poor fit] |  |
| C=CCn1c(CSCc2ccc(C)cc2)nnc1SCC(=O)NCc1ccccc1 | 29.1 µM [falling, single point] |  |
| COc1ccccc1NC(=O)Nc1nc(CC(=O)Nc2ccc(F)c(F)c2)cs1 | 29.1 µM [falling, single point] |  |
| COc1ccc(C(=O)N2CC(c3ccccc3)CC2=O)cc1 (stereo unspecified) | 0.891 µM [rising, full curve, poor fit] |  |

| Structure (SMILES) | AC50 [1] | AC50 [2] |
| --- | --- | --- |
| C/C(CC(=O)NC12CC3CC(CC(C3)C1)C2)=N\NC(=O)c1cnccn1 | 20 µM [falling, partial curve, poor fit] |  |
| CCn1c(=NC(=O)c2ccc(S(=O)(=O)N(C)C)cc2)sc2cccc(OC)c21 | 7.08 µM [falling, partial curve] |  |
| CCN(CC)S(=O)(=O)c1cc(NS(=O)(=O)c2ccccc2)ccc1C |  | 14.6 µM [rising, partial curve, poor fit] |
| Cc1noc(C)c1S(=O)(=O)N(C)C[C@H]1Oc2ccc(NS(=O)(=O)c3ccccc3)cc2C(=O)N([C@H](C)CO)C[C@@H]1C | 1.3 µM [rising, full curve] |  |
| CCOc1ccc(OCC)c(NC(=O)C2CCN(S(=O)(=O)c3ccc4c(c3)CC(C)N4C(C)=O)CC2)c1 (stereo unspecified) | 5.62 µM [falling, full curve] |  |
| Cc1ccc(C(=O)OCC(=O)N2CC(=O)Nc3ccccc32)s1 | 10 µM [rising, partial curve] |  |
| CC(C)(C)NC(=O)C(=O)NCc1ccccn1 | 15.8 µM [rising, partial curve, poor fit] |  |
| COc1cc(NC(=O)c2ccc(N3CCCC3=O)cc2)cc(OC)c1 | 29.1 µM [falling, single point] |  |
| O=C(NC(=S)NCc1ccc(-c2nc3ccccc3s2)cc1)c1ccco1 | 3.26 µM [rising, full curve, poor fit] |  |
| Nc1nc(-c2ccc(Br)s2)c(Br)s1 | 0.82 µM [rising, partial curve] |  |
| O=C(NC(=S)Nc1ccc(S(=O)(=O)Nc2nccs2)cc1)c1ccc(F)cc1 |  | 16.4 µM [rising, partial curve, poor fit] |
| O=C(Cn1nc(C(=O)O)c2ccccc2c1=O)c1cc(F)ccc1F | 0.708 µM [rising, partial curve, poor fit] |  |
| COc1cccc(/C(O)=C2/C(=O)C(=O)N(CCCN(C)C)C2c2cccc(Cl)c2)c1 (stereo unspecified) | 3.55 µM [rising, full curve, poor fit] |  |
| CCn1ncc(/C=N/NC(=O)c2ccc3c(c2)OCO3)c1C | 2.24 µM [falling, full curve] |  |
| OCCN1CCN(c2ncnc3scc(-c4ccc(F)cc4)c23)CC1 | 4.47 µM [rising, partial curve, poor fit] |  |
| O=C(Nc1ccc(N2CCOCC2)cc1)c1cc(-c2ccncc2)nc2ccccc12 | 10 µM [rising, partial curve, poor fit] |  |
| Cc1ccc(C2C(C(=O)O)c3ccccc3C(=O)N2C)o1 (stereo unspecified) | 0.366 µM [falling, full curve, poor fit] |  |
| O=C(/C=C/NNC(=O)c1ccc(Br)cc1)c1ccccc1 | 7.31 µM [falling, partial curve] |  |
| CCOC(=O)c1sc(NC(=O)c2cc(S(=O)(=O)N3CCOCC3)ccc2C)nc1C | 3.26 µM [falling, single point] |  |
| O=C(NCCc1c[nH]c2ccccc12)c1ccc(Br)o1 | 0.461 µM [rising, full curve, poor fit] |  |

Reference: PubChem BioAssay AID493014 (National Center for Advancing Translational Sciences (NCATS), 2011)
